This passage reports binding results from publication PMC3398040.

Results are given in words; binding and its absence hold for the method and conditions named. In cells and extracts the contact can be indirect. For some assays here: A result given as binding can be weak or reduced; the word gives no strength. For some assays here: Sequences can lack the tags named with a protein.

In assay [1] the target is T1, GST-tagged full-length Ddi1 (^GSTFL-Ddi1) (yeast) (UniProt P40087).
T1 sequence: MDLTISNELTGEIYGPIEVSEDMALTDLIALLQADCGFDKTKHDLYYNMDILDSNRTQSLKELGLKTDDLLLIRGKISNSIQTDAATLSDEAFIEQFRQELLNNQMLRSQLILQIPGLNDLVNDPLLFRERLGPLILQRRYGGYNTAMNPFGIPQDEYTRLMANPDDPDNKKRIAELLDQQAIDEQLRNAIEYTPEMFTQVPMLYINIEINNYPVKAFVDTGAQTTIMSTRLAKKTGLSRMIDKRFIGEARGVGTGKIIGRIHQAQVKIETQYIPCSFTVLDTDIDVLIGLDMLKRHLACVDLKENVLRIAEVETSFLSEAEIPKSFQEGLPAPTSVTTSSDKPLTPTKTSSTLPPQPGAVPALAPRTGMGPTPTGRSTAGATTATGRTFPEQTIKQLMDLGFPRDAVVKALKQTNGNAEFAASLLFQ
The assay can be described thus: pull-down; GST-Ddi1, GST-Ddi1ΔUbL or GST-Ddi1ΔUbA on GSH beads incubated with HIS-Rpn1 bacterial lysate together with yeast extract with GFP-Ufo1 or GFP-Ufo1Δuims (Figures 5E, 5F, both present); only the target purified.

Assay [2] has as its target T1, GST-tagged full-length Ddi1 (^GSTFL-Ddi1) (yeast). As to the kind of experiment: pull-down; recombinant GST fusion on GSH beads incubated with yeast extract, 4°C, 1-2 h, extract buffer (50 mM Tris-Cl pH 7.5, 150 mM NaCl, 5 mM EDTA, 0.1% NP40); washed with 2.5% Triton X100; Western blot (Figures 1A, 1B, 3A, 5E and 5F, extract alone); only the target purified.
Assay [3] deals with T2, GST-tagged full-length Ufo1 (^GSTFL-Ufo1) (yeast) (UniProt Q04511).
T2 sequence: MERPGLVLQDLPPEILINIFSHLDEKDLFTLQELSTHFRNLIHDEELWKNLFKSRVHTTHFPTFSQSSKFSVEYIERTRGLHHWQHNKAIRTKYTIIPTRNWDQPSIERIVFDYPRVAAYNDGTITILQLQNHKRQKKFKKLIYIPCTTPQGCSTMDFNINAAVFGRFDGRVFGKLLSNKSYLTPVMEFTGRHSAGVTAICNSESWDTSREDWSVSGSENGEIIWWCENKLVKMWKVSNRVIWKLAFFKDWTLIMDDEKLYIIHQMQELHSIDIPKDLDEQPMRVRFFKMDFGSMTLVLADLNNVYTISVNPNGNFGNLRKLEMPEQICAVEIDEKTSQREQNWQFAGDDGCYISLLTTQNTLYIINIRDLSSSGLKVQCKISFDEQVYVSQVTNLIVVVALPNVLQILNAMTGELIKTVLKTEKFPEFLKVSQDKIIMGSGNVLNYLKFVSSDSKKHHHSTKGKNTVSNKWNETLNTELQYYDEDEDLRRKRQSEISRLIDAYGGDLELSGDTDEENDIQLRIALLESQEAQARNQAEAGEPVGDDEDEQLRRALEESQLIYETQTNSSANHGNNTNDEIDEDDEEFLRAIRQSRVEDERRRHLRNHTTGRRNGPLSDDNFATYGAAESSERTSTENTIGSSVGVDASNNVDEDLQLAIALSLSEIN
The description is as above.

In assay [4] the target is GST-tagged Ufo1 WD40 domain (^GSTUfo1-WD40 domain) (yeast). As to the kind of experiment: pull-down; as a3 but yeast extract (wild type or ddi1Δ) without GFP-Ho (Figures 2A, 2B); only the target purified.
For assay [5] the target is unchanged. The assay can be described thus: pull-down; GST-Ufo1 or GST-Ufo1-WD40 on GSH beads incubated with yeast extract (wild type or ddi1Δ) with myc-Cdc53, a GFP-tagged 19S RP subunit and GFP-Ho present (Figures 2A, 2B, S2, S3); only the target purified.
Assay [6] deals with GST-tagged Ddi1 lacking the UbA domain (^GSTDdi1ΔUbA) (yeast). The assay can be described thus: pull-down; GST-Ddi1, GST-Ddi1ΔUbL or GST-Ddi1ΔUbA on GSH beads incubated with HIS-Rpn1 bacterial lysate together with yeast extract with GFP-Ufo1 or GFP-Ufo1Δuims (Figures 5E, 5F, both present); only the target purified.
For assay [7] the target is unchanged. As to the kind of experiment: pull-down; recombinant GST fusion on GSH beads incubated with yeast extract, 4°C, 1-2 h, extract buffer (50 mM Tris-Cl pH 7.5, 150 mM NaCl, 5 mM EDTA, 0.1% NP40); washed with 2.5% Triton X100; Western blot (Figures 1A, 1B, 3A, 5E and 5F, extract alone); only the target purified. On the technique in general: In western blotting, separated proteins are transferred to a membrane and probed.

The target in assay [8] is GST-tagged Ufo1 WD40 domain (^GSTUfo1-WD40 domain) (yeast). The description is as above.
For assay [9] the target is unchanged. As to the kind of experiment: pull-down; recombinant GST fusion on GSH beads incubated with bacterial lysate holding a HIS-tagged protein; Western blot (Figures 1C, 3C, 3D, 5D, 5E with Rpn1 alone); only the target purified.

For “GFP-tagged Ufo1 truncated for the C-terminal UIMs (^GFPUfo1Δuims) (yeast) (domain or fragment)”, the binding result in [1], in assay [2] and in assay [3] was “no binding” each time.

B1: endogenous Ddi1 (protein, UniProt P40087 1-428)
chain: T1 sequence
For the molecule B1, the binding result in assay [4] and in assay [5] was “binds” in each case.

B2: GFP-tagged full-length Ufo1 (^GFPFL-Ufo1) (protein, UniProt Q04511 1-668)
chain: T2 sequence
modifications: ubiquitylated as produced in yeast (sites not given)
On to B2, for which the binding result in assay [6] was “binds weakly”; in assay [7], “binds”; in assay [8] it was “binds weakly”.

B3: GFP-tagged Ho endonuclease (^GFPHo) (enzyme, UniProt P09932 1-586)
chain: MLSENTTILMANGEIKDIANVTANSYVMCADGSAARVINVTQGYQKIYNIQQKTKHRAFEGEPGRLDPRRRTVYQRLALQCTAGHKLSVRVPTKPLLEKSGRNATKYKVRWRNLQQCQTLDGRIIIIPKNHHKTFPMTVEGEFAAKRFIEEMERSKGEYFNFDIEVRDLDYLDAQLRISSCIRFGPVLAGNGVLSKFLTGRSDLVTPAVKSMAWMLGLWLGDSTTKEPEISVDSLDPKLMESLRENAKIWGLYLTVCDDHVPLRAKHVRLHYGDGPDENRKTRNLRKNNPFWKAVTILKFKRDLDGEKQIPEFMYGEHIEVREAFLAGLIDSDGYVVKKGEGPESYKIAIQTVYSSIMDGIVHISRSLGMSATVTTRSAREEIIEGRKVQCQFTYDCNVAGGTTSQNVLSYCRSGHKTREVPPIIKREPVYFSFTDDFQGESTVYGLTIEGHKNFLLGNKIEVKSCRGCCVGEQLKISQKKNLKHCVACPRKGIKYFYKDWSGKNRVCARCYGRYKFSGHHCINCKYVPEAREVKKAKDKGEKLGITPEGLPVKGPECIKCGGILQFDAVRGPHKSCGNNAGARIC
modifications: ubiquitylated as produced in yeast (sites not given)
As to B3, the binding result in [5] is recorded as “binds”.

B4: HIS-tagged core of Ddi1 without the UbL and UbA domains (^HISΔΔDdi1) (domain or fragment, UniProt P40087 180-325)
chain: QQAIDEQLRNAIEYTPEMFTQVPMLYINIEINNYPVKAFVDTGAQTTIMSTRLAKKTGLSRMIDKRFIGEARGVGTGKIIGRIHQAQVKIETQYIPCSFTVLDTDIDVLIGLDMLKRHLACVDLKENVLRIAEVETSFLSEAEIPK
B4: in assay [9], the binding result was “binds”.

B5: myc-tagged Cdc53 (^mycCdc53) (protein, UniProt Q12018 1-815)
chain: MSETLPRSDDLEATWNFIEPGINQILGNEKNQASTSKRVYKILSPTMYMEVYTAIYNYCVNKSRSSGHFSTDSRTGQSTILVGSEIYEKLKNYLKNYILNFKQSNSETFLQFYVKRWKRFTIGAIFLNHAFDYMNRYWVQKERSDGKRHIFDVNTLCLMTWKEVMFDPSKDVLINELLDQVTLGREGQIIQRSNISTAIKSLVALGIDPQDLKKLNLNVYIQVFEKPFLKKTQEYYTQYTNDYLEKHSVTEYIFEAHEIIKREEKAMTIYWDDHTKKPLSMALNKVLITDHIEKLENEFVVLLDARDIEKITSLYALIRRDFTLIPRMASVFENYVKKTGENEISSLLAMHKHNIMKNENANPKKLALMTAHSLSPKDYIKKLLEVHDIFSKIFNESFPDDIPLAKALDNACGAFININEFALPAGSPKSATSKTSEMLAKYSDILLKKATKPEVASDMSDEDIITIFKYLTDKDAFETHYRRLFAKRLIHGTSTSAEDEENIIQRLQAANSMEYTGKITKMFQDIRLSKILEDDFAVALKNEPDYSKAKYPDLQPFVLAENMWPFSYQEVEFKLPKELVPSHEKLKESYSQKHNGRILKWLWPLCRGELKADIGKPGRMPFNFTVTLFQMAILLLYNDADVLTLENIQEGTSLTIQHIAAAMVPFIKFKLIQQVPPGLDALVKPETQFKLSRPYKALKTNINFASGVKNDILQSLSGGGHDNHGNKLGNKRLTEDERIEKELNTERQIFLEACIVRIMKAKRNLPHTTLVNECIAQSHQRFNAKVSMVKRAIDSLIQKGYLQRGDDGESYAYLA
For B5, in assay [5], the binding entry is listed as “binds”.
